Values from PubChem BioAssay AID1671195 (Yale University, 2021).

Test: 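Regulators of LDL receptor activity judged by labelled LDL uptake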 (primary screen)
Cells: human Huh7 hepatoma cells
Reagents: siRNA pool against human genes, 18 nM
Timing: about 2 to 2.5 days of knockdown, then 8 h LDL uptake
Challenge: DiI-labelled LDL at 30 µg/ml for 8 h, in lipoprotein-deficient serum medium
Measured: 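Fluorescent LDL signal imaged in cells, scaled to the plate median, robust z-score for each replicate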
Scale: robust z-score: higher = more LDL uptake after knockdown
Hit rule: 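Active when two or more replicates show a robust z-score above 2 or below -2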
The deposit covers about 22,000 reagents; shown is an unselected part. About 1,510 of them (6.9%) were called active. 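Active includes knockdowns raising or lowering LDL uptake; positive z-scores mean more uptake, negative mean less.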 Unmarked entries are inactive. Reagent sequences are not shown.

| gene | robust z-score, replicate 1 | robust z-score, replicate 2 | robust z-score, replicate 3 |
| --- | --- | --- | --- |
| TBC1D2B (TBC1 domain family member 2B) | 0.331 | 0.732 | 0.752 |
| ABCC1 | 3.12 (active) | 2.55 | 0.809 |
| PNPT1 (polyribonucleotide nucleotidyltransferase 1) | 0.00827 | 0.0729 | 0.737 |
| LINC03163 (long independently transcribed non-coding RNA 3163) | -0.946 | -0.923 | -1.25 |
| ZCCHC9 (zinc finger CCHC-type containing 9) | 0.733 | 0.512 | 0.789 |
| EMILIN1 (elastin microfibril interfacer 1) | -1.11 | -1.2 | -1.06 |
| RER1 (retention in endoplasmic reticulum sorting receptor 1) | 0.163 | 0.116 | 0.188 |
| SPMIP2 (sperm microtubule inner protein 2) | -1.16 | -1.44 | -1.55 |
| OR2W1 (olfactory receptor family 2 subfamily W member 1) | 0.323 | -1 | -1.04 |
| PGBD3 (piggyBac transposable element derived 3) | -0.352 | -0.179 | -0.0429 |
| ARHGAP29 (Rho GTPase activating protein 29) | -0.0908 | 0.0224 | -0.145 |
| TRIM11 (tripartite motif containing 11) | -0.833 | -0.565 | -0.0461 |
| CLDND2 (claudin domain containing 2) | 0.00238 | 0.204 | 0.317 |
| PSMC6 (proteasome 26S subunit, ATPase 6) | 0.593 | -0.0833 | -0.635 |
| GALR1 (galanin receptor 1) | -0.375 | -1.21 | -1.21 |
| FKTN (fukutin) | -0.695 | 0.912 | 0.19 |
| B3GNT6 | -0.404 | -0.399 | -0.0964 |
| LOC148915 (retired record) | 0.329 | 0.457 | 0.605 |
| AGAP4 (ArfGAP with GTPase domain, ankyrin repeat and PH domain 4) | 0.374 | 0.632 | 0.459 |
| S100A12 (S100 calcium binding protein A12) | 0.041 | 0.189 | 0.135 |
| MRPL46 (mitochondrial ribosomal protein L46) | 1 | 1.06 | 0.0519 |
| ARHGAP11A (Rho GTPase activating protein 11A) | -0.763 | -0.325 | -0.279 |
| GPR160 (G protein-coupled receptor 160) | -0.229 | 0.647 | 0.267 |
| TMEM72 (transmembrane protein 72) | 0.396 | 0.339 | 0.119 |
| CCL23 (C-C motif chemokine ligand 23) | -1.76 | -1.46 | -1.32 |
| ABHD14A (abhydrolase domain containing 14A) | 0.323 | 1.31 | 0.191 |
| DCAF4 (DDB1 and CUL4 associated factor 4) | -1.55 | -0.4 | 0.0328 |
| LDHAL6B (lactate dehydrogenase A like 6B) | 1.06 | 1.29 | 1.1 |

3 entries from above in another layout:
TMEM72 (transmembrane protein 72) → robust z-score, replicate 1 = 0.396; robust z-score, replicate 2 = 0.339; robust z-score, replicate 3 = 0.119
CCL23 (C-C motif chemokine ligand 23) → robust z-score, replicate 1 = -1.76; robust z-score, replicate 2 = -1.46; robust z-score, replicate 3 = -1.32
ABHD14A (abhydrolase domain containing 14A) → robust z-score, replicate 1 = 0.323; robust z-score, replicate 2 = 1.31; robust z-score, replicate 3 = 0.191
